Assay results as given in US7981919B2, “Tricyclic heteroaryl piperazines, pyrrolidines and azetidines as serotonin receptor modulators” (Athersys, Inc., priority 2004, dated 2011).
Some results were stated once for a whole list of compounds, not compound by compound.

Target: T1, human 5HT2c receptor (VNV Isoform) (Homo sapiens, UniProt P28335, I156V/I160V, form not given)
T1 sequence (P28335 1-458 I156V/N158S/I160V): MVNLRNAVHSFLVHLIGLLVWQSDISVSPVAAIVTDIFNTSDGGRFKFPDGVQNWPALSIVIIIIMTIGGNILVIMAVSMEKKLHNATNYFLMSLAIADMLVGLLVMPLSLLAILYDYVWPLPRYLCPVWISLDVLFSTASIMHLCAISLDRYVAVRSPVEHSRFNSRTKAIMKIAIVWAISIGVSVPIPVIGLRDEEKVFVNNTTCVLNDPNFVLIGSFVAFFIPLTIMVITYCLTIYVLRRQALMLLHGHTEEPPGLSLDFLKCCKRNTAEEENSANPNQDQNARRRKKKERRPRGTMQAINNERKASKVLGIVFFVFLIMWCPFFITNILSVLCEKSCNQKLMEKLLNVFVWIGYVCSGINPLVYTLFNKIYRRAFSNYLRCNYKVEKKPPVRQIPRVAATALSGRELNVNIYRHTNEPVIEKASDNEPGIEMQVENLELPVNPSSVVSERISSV
Experiment: Calcium mobilization (FLIPR) 5HT2c receptor agonist assay in HEK 293 EBNA cells
Assay type: cell-based
Settings: HEK 293 EBNA cells expressing human 5HT2c receptor, ligand-induced calcium release, read-out: 5-HT2c EC50 (hVSV)
Method: The following procedure was utilized to evaluate representative compounds of the present invention as 5HT2c receptor agonists.
5HT was utilized as a positive control. Ligand-induced calcium release and consequent fluorescence was measured on a Fluorometric Imaging Plate Reader (FLIPR, Molecular Device, CA).
All data were analyzed by nonlinear least square curve fitting using Prism 4.0 software. Agonist stimulation of calcium-induced fluorescence in FLIPR was fitted to sigmoidal dose response using equation Y=Bottom+(Top−Bottom)/(1+10 ? ((Log EC50−X))), where X is the logarithm of concentration of compounds and Y is the fluorescent response.

| Structure (SMILES) | EC50 |
| --- | --- |
| Cc1sc2c(c1Br)CC1CNCC21 (single isomer, unassigned) [16, Enantiomer 1] | < 100 nM |
| Cc1c(Br)sc2c1CC1CNCC21 (single isomer, unassigned) [18, Enantiomer 1] | < 100 nM |
| Cc1c(Cl)sc2c1C(C)C1CNCC21 (single isomer, unassigned) [26, Enantiomer 1] | < 1000 nM |
| Brc1cc2c(s1)CC1CNCCC21 (single isomer, unassigned) [28, Enantiomer 2] | < 1000 nM |
| Brc1cc2c(s1)CC1CCNCC21 (single isomer, unassigned) [29, Enantiomer 1] | < 1000 nM |
| Brc1cc2c(s1)C1CNCCC1C2 (single isomer, unassigned) [30, Enantiomer 1] | < 1000 nM |
| Cc1sc2c(c1Br)CC1CNCCC21 (single isomer, unassigned) [32, Enantiomer 1] | < 10000 nM |
| CC1c2sc(Br)cc2C2CNCC12 (single isomer, unassigned) [35, Enantiomer 1] | < 1000 nM |
| Brc1csc2c1CC1CNCC21 (single isomer, unassigned) [37, Enantiomer 2] | < 100 nM |
| Brc1cc2c(s1)C1CNCC1C2 (single isomer, unassigned) [38, Enantiomer 2] | < 1000 nM |
| CC1c2c(sc3ccccc23)C2CNCC12 (single isomer, unassigned) [44, Enantiomer 1] | < 1000 nM |
| c1ccc2c3c(sc2c1)C1CNCC1C3 (single isomer, unassigned) [45, Enantiomer 1] | < 100 nM |
| Cc1c(Br)sc2c1C1CNCC1CC2 (single isomer, unassigned) [46, Enantiomer 1] | < 10000 nM |
| Brc1csc2c1CCC1CNCC21 (single isomer, unassigned) [47, Enantiomer 1] | < 1000 nM |
| Cc1c(Br)sc2c1CCC1CNCC21 (single isomer, unassigned) [48, Enantiomer 1] | < 1000 nM |
| Cc1sc2c(c1Br)CC1CNCC21 (stereo not drawn) [Example 16, 6-Bromo-5-methyl-1,2,3,3a,7,7a-hexahydro-4-thia-2-aza-cyclopenta[α]pentalene] | < 100 nM |
| Cc1c(Br)sc2c1CC1CNCC21 (stereo not drawn) [Example 18, 5-Bromo-6-methyl-1,2,3,3a,7,7a-hexahydro-4-thia-2-aza-cyclopenta[α]pentalene] | < 100 nM |
| Cc1c(Cl)sc2c1C(C)C1CNCC21 (stereo not drawn) [Example 26, 5-Chloro-6,7-dimethyl-1,2,3,3a,7,7a-hexahydro-4-thia-2-aza-cyclopenta[α]pentalene] | < 1000 nM |
| Brc1cc2c(s1)CC1CNCCC21 (stereo not drawn) [Example 28, 2-Bromo-4,5,6,7,7a,8-hexahydro-3bH-1-thia-6-aza-cyclopenta[α]indene] | < 1000 nM |
| Brc1cc2c(s1)CC1CCNCC21 (stereo not drawn) [Example 29, 2-Bromo-4,5,6,7,7a,8-hexahydro-3bH-1-thia-5-aza-cyclopenta[α]indene] | < 1000 nM |
| Brc1cc2c(s1)C1CNCCC1C2 (stereo not drawn) [Example 30, 2-Bromo-4,5,6,7,7a,8-hexahydro-3bH-3-thia-5-aza-cyclopenta[α]indene] | < 1000 nM |
| CC1c2sc(Br)cc2C2CNCC12 (stereo not drawn) [Example 35, 2-Bromo-7-methyl-3b,4,5,6,6a,7-hexahydro-1-thia-5-aza-cyclopenta[α]pentalene] | < 1000 nM |
| Brc1csc2c1CC1CNCC21 (stereo not drawn) [Example 37, 6-Bromo-1,2,3,3a,7,7a-hexahydro-4-thia-2-aza-cyclopenta[α]pentalene] | < 100 nM |
| Brc1cc2c(s1)C1CNCC1C2 (stereo not drawn) [Example 38, 5-Bromo-1,2,3,3a,7,7a-hexahydro-4-thia-2-aza-cyclopenta[α]pentalene] | < 1000 nM |
| CC1c2c(sc3ccccc23)C2CNCC12 (stereo not drawn) [Example 44, Benzo[b]-7-Methyl-1,2,3,3a,7,7a-hexahydro-4-thia-2-aza-cyclopenta-[α]pentalene] | < 1000 nM |
| c1ccc2c3c(sc2c1)C1CNCC1C3 (stereo not drawn) [Example 45, 4-Benzo[b]-1,2,3,3a,7,7a-Hexahydro-4-thia-2-aza-cyclopenta[α]-pentalene] | < 100 nM |
| Cc1c(Br)sc2c1C1CNCC1CC2 (centres unmarked) [Example 46, 7-Bromo-8-methyl-2,3,3A,4,5,8b-hexahydro-1H-6-thia-2-aza-as-indacene] | < 10000 nM |
| Brc1csc2c1CCC1CNCC21 (centres unmarked) [Example 47, 3-Bromo-5,5a,6,7,8,8a-hexahydro-4H-1-thia-7-aza-as-indacene] | < 1000 nM |
| Cc1c(Br)sc2c1CCC1CNCC21 (centres unmarked) [Example 48, 2-Bromo-3-methyl-5,5a,6,7,8,8a-hexahydro-4H-1-thia-7-aza-as-indacene] | < 1000 nM |
